# Assay results from PMC7819943, “Rice protein-binding microarrays: a tool to detect cis-acting elements near promoter regions in rice”.
# By UniProt entry, the sequences of proteins in these tests, tags left out.
# UniProt Q0JBA9, entry or part of it: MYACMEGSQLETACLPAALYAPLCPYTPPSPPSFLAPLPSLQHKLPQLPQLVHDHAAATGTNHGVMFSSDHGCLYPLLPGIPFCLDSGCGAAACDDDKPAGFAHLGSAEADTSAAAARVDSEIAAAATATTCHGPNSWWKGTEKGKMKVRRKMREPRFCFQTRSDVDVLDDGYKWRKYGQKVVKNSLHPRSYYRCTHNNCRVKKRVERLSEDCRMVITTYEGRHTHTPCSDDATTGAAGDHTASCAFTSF
# The other results are listed elsewhere or left out.
# Target: OsWRKY34 (Oryza sativa, UniProt Q0JBA9 1-250)
# Test: protein-binding microarray (RPBM); PBS, 2% BSA, 51.3 ng/ul salmon testes DNA, 50 uM zinc acetate, 200 nM TF, 25 C, 1 h; high values mean tight binding
# Conditions: protein: recombinant; tags: N-terminal polyhistidine and DsRed monomer fusion (pET32a); label: CyDye5-dUTP incorporated in the synthesized complementary strand; 3' TTTTT single-stranded linker to array surface; dsDNA, one strand shown
# Method in brief: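 Using Ni–NTA, transcription factors fused N-terminally to polyhistidine and DsRed were purified after expression in E. coli BL21-CodonPlus. These were incubated at 200 nM with a blocked, double-stranded custom Agilent array for 1 h at 25 °C in a buffer containing 50 µM zinc acetate, and the array was washed. The binding signal is per-feature fluorescence intensity (arbitrary units) on an Axon 4000B scanner.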
row,Sequence,binding signal
1,ACATGTAACGTTTGTTCAAGCAATTATACTACTACCATAGCGGAGTCACCTAGTGCAG,8290 fluorescence intensity (a.u.)
2,TTATTCTGTTCATCCACCGGTTTTATCACAACTTGCTAAACGGAGTCACCTAGTGCAG,10600 fluorescence intensity (a.u.)
3,GCCATTGAAACCGCCGAGGGACCTAATATGCACCGGTTTTCGGAGTCACCTAGTGCAG,8280 fluorescence intensity (a.u.)
4,ATCGAACCTTATCTCCTTCTCTCTCGTCGCTTTCTGCGTCCGGAGTCACCTAGTGCAG,8730 fluorescence intensity (a.u.)
5,AAATCTTACATAGCCCACGTTGACTAACCCCGTGTTGAGACGGAGTCACCTAGTGCAG,8920 fluorescence intensity (a.u.)
6,GCCCATGTACGATGACGTGTACCCTATTGTCTTCTACTAGCGGAGTCACCTAGTGCAG,8170 fluorescence intensity (a.u.)
7,CCCTTCATCTCGCCGCCGCCGCCTCACTCGTCTCGTGCCCCGGAGTCACCTAGTGCAG,9620 fluorescence intensity (a.u.)
8,CAAGGTCCTAGTACTATTTCGTATGCTACGGTTTTTCCTGCGGAGTCACCTAGTGCAG,9310 fluorescence intensity (a.u.)
9,CCTTTAAGTCTATATCTCTCTCATCCGATTCCTATGTTTTCGGAGTCACCTAGTGCAG,11200 fluorescence intensity (a.u.)
10,TATTTCATTGTTTGTGATTTCTTTTTTGGCTTTTAATACACGGAGTCACCTAGTGCAG,13800 fluorescence intensity (a.u.)
11,AGGTGTGGCTTTGTGTCCTTGTTTTTCTTATGTGGGAAGTCGGAGTCACCTAGTGCAG,9060 fluorescence intensity (a.u.)
12,TGCAATGCCACCGTCAAGTACGCCTCCCGCCGCCTCCGCGCGGAGTCACCTAGTGCAG,8180 fluorescence intensity (a.u.)
13,CCTCCAATCTCGCTCCACGAATCGCTGCCTTGGAAACCGACGGAGTCACCTAGTGCAG,8860 fluorescence intensity (a.u.)
14,CCGGTACGTTTATCCACTGACCACTGGCATGCACGGCGAGCGGAGTCACCTAGTGCAG,8810 fluorescence intensity (a.u.)
15,TCCCGAAACGCCGCCGCCTCCCCTCCTCATCGCTCCGCCTCGGAGTCACCTAGTGCAG,8500 fluorescence intensity (a.u.)
16,GACGAGATGTCACAAGTATACTTCTTGCCGTTCAAACTTTCGGAGTCACCTAGTGCAG,9540 fluorescence intensity (a.u.)
17,ATTTGAGGGCTGGATGACTAGGTATAAAATGGGGCGGGCTCGGAGTCACCTAGTGCAG,9280 fluorescence intensity (a.u.)
18,TGTTTTCCGCTCGTTTTATCCGTAGCCCTAAGGCTGTGTTCGGAGTCACCTAGTGCAG,12800 fluorescence intensity (a.u.)
19,ATGCCACATATTTCGTCCGTTTGAGTTTATTTTTTACATGCGGAGTCACCTAGTGCAG,12300 fluorescence intensity (a.u.)
20,TCAGCTATGCACATTGAGCCTCACTTCTTGTTATCAATTACGGAGTCACCTAGTGCAG,8210 fluorescence intensity (a.u.)
21,GGGGTTTTGCAACTATTTATTGGTCCTTCTGGATCTCGGACGGAGTCACCTAGTGCAG,8100 fluorescence intensity (a.u.)
22,CCCAGTTTTATTTCTGCAGTTCATTTTATGAGAGCATTCTCGGAGTCACCTAGTGCAG,8120 fluorescence intensity (a.u.)
23,GGCCATTTTGTACATCAATTCTTGAGTCTTCAGTTTGTTACGGAGTCACCTAGTGCAG,8620 fluorescence intensity (a.u.)
24,GTGGCTTGGGCAATTACGCCACAGCTCACTGAATTCGATCCGGAGTCACCTAGTGCAG,9410 fluorescence intensity (a.u.)
25,GCTGAACCTGCCGCCCAGCCCGTCGCGGCTGCCGTTCATCCGGAGTCACCTAGTGCAG,8800 fluorescence intensity (a.u.)
26,GGCTTCCGCCACACTTGACCGACGCCCCTCCGCTGGCCAGCGGAGTCACCTAGTGCAG,9130 fluorescence intensity (a.u.)
27,ATAGTGATATGTTTCAATGTGCGTCTAGAGTGTGTTTCATCGGAGTCACCTAGTGCAG,8290 fluorescence intensity (a.u.)

row,Sequence,binding signal
1,AAAATTCTGACTATCACGTACACTATTTACATTCATATTTCGGAGTCACCTAGTGCAG,8180 fluorescence intensity (a.u.)
2,TTTTTAACTAACGTTTGACCACTCGTCTTATTTAAAAATTCGGAGTCACCTAGTGCAG,8220 fluorescence intensity (a.u.)
3,TAGTAGGTCCCACCATCTCTCTTTTCACATTCATCTCTCCCGGAGTCACCTAGTGCAG,8250 fluorescence intensity (a.u.)
4,TTTTCTTCTGACGCCAACAATTGGTAAGCTTCATTGGTTCCGGAGTCACCTAGTGCAG,8650 fluorescence intensity (a.u.)
5,ACTTTGTTTACACGGTGGTTCTCTCCTTTTCTTCTTCTCACGGAGTCACCTAGTGCAG,8480 fluorescence intensity (a.u.)
6,CGCCGTCACTGCATGGTGATCTTCATCACCGTCGCCTCACCGGAGTCACCTAGTGCAG,8390 fluorescence intensity (a.u.)
7,TCCAAGAAAGCCGTTGACCAATTTACATGACATCAAACTACGGAGTCACCTAGTGCAG,12000 fluorescence intensity (a.u.)
8,ATGGTCAAACATGTGTTCAAAATTCAACGCGTCATCTATTCGGAGTCACCTAGTGCAG,8320 fluorescence intensity (a.u.)
9,GAGATTAGGGGTAGGGTTGGAAAAATAAATATGGGGCTTTCGGAGTCACCTAGTGCAG,12100 fluorescence intensity (a.u.)
10,GATTATTATTGACGGTGACTATTTGACCTCCTTTGCTATACGGAGTCACCTAGTGCAG,9190 fluorescence intensity (a.u.)
11,AGCACCAGGTGTTTATTAGCTTCTCTCCACGTCTTCTTCCCGGAGTCACCTAGTGCAG,8700 fluorescence intensity (a.u.)
12,CACTTTCCGGGCTTGAAATTAATTTCTTTTGGTTAGTTTACGGAGTCACCTAGTGCAG,10300 fluorescence intensity (a.u.)
13,TCCCGCCGCGACCCAAGTCTACTGCTTGCTTTCCTCCTCTCGGAGTCACCTAGTGCAG,11900 fluorescence intensity (a.u.)
14,CGCGCTTTATTTTCCAGTAATTAATGTACTCGATTATGTACGGAGTCACCTAGTGCAG,8060 fluorescence intensity (a.u.)
15,ATTAACACTAATTTACATCATTCTCAGCCTGTTTTCACTTCGGAGTCACCTAGTGCAG,9540 fluorescence intensity (a.u.)
16,CACGGGCCGACTCTTATCGCCCGGAGCCGGTCTCGTCTCACGGAGTCACCTAGTGCAG,8170 fluorescence intensity (a.u.)
17,GCTCAGCTCTTCACTTCTGCTGCATTCACACCACCACACTCGGAGTCACCTAGTGCAG,9310 fluorescence intensity (a.u.)
18,GATTGTTACCATGTTTTCAGCGGCGCGCTCAGGGACCACTCGGAGTCACCTAGTGCAG,12300 fluorescence intensity (a.u.)
19,TGCAATCCTCTGTTTTACACTTCAATTCCTGTCAGAATCCCGGAGTCACCTAGTGCAG,8080 fluorescence intensity (a.u.)
20,GCCTGACTTATCTCTTCACTCGGCTTGCTGGAATGACCTCCGGAGTCACCTAGTGCAG,10100 fluorescence intensity (a.u.)
21,GGATATGGTTGTTGCTGAATTGTTTAATTTTCGTAGAAAGCGGAGTCACCTAGTGCAG,11500 fluorescence intensity (a.u.)
22,TTTCATCCCTACACCAACCCAATCCTTTGCGTTTTCGAATCGGAGTCACCTAGTGCAG,10700 fluorescence intensity (a.u.)
23,TTTGAGAAGGGCTTTGCTGCTGTGATTGGTTGTTCTTGGTCGGAGTCACCTAGTGCAG,9030 fluorescence intensity (a.u.)
24,AGTTTTTTTACCGCGTTATTTTTTTTCGAAGATTATTTTACGGAGTCACCTAGTGCAG,10100 fluorescence intensity (a.u.)
25,TCGATTTGACAGTTCGTGCGGTGCGGCTCCCAATAATTTCCGGAGTCACCTAGTGCAG,8130 fluorescence intensity (a.u.)
26,TTTGTATGACTGTCTGTGTGCGATCCCATCTGAAAATCCTCGGAGTCACCTAGTGCAG,8300 fluorescence intensity (a.u.)
27,CAAGTAAGACCACCCAACGATTCATACCTATAGCCGCCACCGGAGTCACCTAGTGCAG,8050 fluorescence intensity (a.u.)

# For reference, part of the list above:
row,Sequence,binding signal
1,ACATGTAACGTTTGTTCAAGCAATTATACTACTACCATAGCGGAGTCACCTAGTGCAG,8290 fluorescence intensity (a.u.)
2,TTATTCTGTTCATCCACCGGTTTTATCACAACTTGCTAAACGGAGTCACCTAGTGCAG,10600 fluorescence intensity (a.u.)
3,GCCATTGAAACCGCCGAGGGACCTAATATGCACCGGTTTTCGGAGTCACCTAGTGCAG,8280 fluorescence intensity (a.u.)
4,ATCGAACCTTATCTCCTTCTCTCTCGTCGCTTTCTGCGTCCGGAGTCACCTAGTGCAG,8730 fluorescence intensity (a.u.)
5,AAATCTTACATAGCCCACGTTGACTAACCCCGTGTTGAGACGGAGTCACCTAGTGCAG,8920 fluorescence intensity (a.u.)
6,GCCCATGTACGATGACGTGTACCCTATTGTCTTCTACTAGCGGAGTCACCTAGTGCAG,8170 fluorescence intensity (a.u.)
7,CCCTTCATCTCGCCGCCGCCGCCTCACTCGTCTCGTGCCCCGGAGTCACCTAGTGCAG,9620 fluorescence intensity (a.u.)
8,CAAGGTCCTAGTACTATTTCGTATGCTACGGTTTTTCCTGCGGAGTCACCTAGTGCAG,9310 fluorescence intensity (a.u.)
9,CCTTTAAGTCTATATCTCTCTCATCCGATTCCTATGTTTTCGGAGTCACCTAGTGCAG,11200 fluorescence intensity (a.u.)
10,TATTTCATTGTTTGTGATTTCTTTTTTGGCTTTTAATACACGGAGTCACCTAGTGCAG,13800 fluorescence intensity (a.u.)
11,AGGTGTGGCTTTGTGTCCTTGTTTTTCTTATGTGGGAAGTCGGAGTCACCTAGTGCAG,9060 fluorescence intensity (a.u.)
12,TGCAATGCCACCGTCAAGTACGCCTCCCGCCGCCTCCGCGCGGAGTCACCTAGTGCAG,8180 fluorescence intensity (a.u.)
13,CCTCCAATCTCGCTCCACGAATCGCTGCCTTGGAAACCGACGGAGTCACCTAGTGCAG,8860 fluorescence intensity (a.u.)
14,CCGGTACGTTTATCCACTGACCACTGGCATGCACGGCGAGCGGAGTCACCTAGTGCAG,8810 fluorescence intensity (a.u.)
